Legend:
[1] = general procedure: Boc solid-phase peptide synthesis; Boc-Leu-OCH2-PAM resin (1% DVB); conditions: whole synthesis, scale 0.55 mmoles
[2] = general procedure: Boc solid-phase peptide synthesis; Boc-O-benzyl-L-Thr-O-resin (1% DVB); conditions: whole synthesis, scale 0.259 meq
[3] = general procedure: Boc solid-phase peptide synthesis; Boc-Leu-O-resin (1% divinylbenzene resin (DVB)); conditions: whole synthesis
[4] = general procedure: Boc solid-phase peptide synthesis; Boc-Leu-O-resin (1% DVB); conditions: whole synthesis, scale 0.259 meq

**Q.** For H-EEIFEEYL-OH, which crude yield [1] is on record?
**A.** 17.9%

**Q.** What does the source list for H-LYEEPIEEFDGNNHSEPNPT-OH?
**A.** crude mass [2]: 120 mg; crude HPLC purity ([3]; reverse-phase HPLC, Vydac C4 or Aquapore RP-300 C8, absorbance at 215 nm, scale of the general procedure 0.259 meq): >90%; crude yield ([3]; scale of the general procedure 0.259 meq): 19.9%

**Q.** With “H-Thr-Pro-Asn-Pro-Glu-Ser-His-Asn-Asn-Gly-Asp-Phe-Glu-Glu-Ile-Pro-Glu-Glu- Tyr-Leu-OH” as the substance, how does the crude mass [4] read?
**A.** Approximately 100 mg

**Q.** And the “crude HPLC purity” value ([3]; 214 nm, scale of the general procedure 0.259 meq)?
**A.** >90%

**Q.** What about the crude yield ([3]; scale 0.259 meq) of the same substance?
**A.** 17%

Reference: US5256559A (Biogen, Inc., priority 1991, dated 1993)
